Laboratory results from PubChem BioAssay AID504444 (National Center for Advancing Translational Sciences (NCATS), 2011).
Hit rate of the full screen: of about 360,000 compounds, about 7,500 (2.1%) were called active. The inconclusive results got no clear call from the source; some entries with a clear call stand among them for comparison. Calls follow the shape of the dose curve; as a rule, active = well fitted inhibition curve with a large enough effect; inconclusive = small, poorly fitted or top-dose-only effect, or effect the other way; inactive = flat fitted curve, though single readings scatter. A potency beside an inconclusive call is a rough fit, not a confirmed value.

Test: Nrf2 qHTS screen for inhibitors; also: nearly all actives have a fitted effect of over 60% in size
Conditions: A549 ARE-Fluc reporter, luciferase luminescence, 18-24 h; activity change, negative = inhibition: at 46 µM (top of the series)
How it was run: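 Two sequential reads on A549 ARE_Fluc cells exposed to compound for 18-24 h: a CellTiter-Fluor fluorescence read for viability, then a luciferase luminescence read for Nrf2/ARE activity.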
% is scaled to controls: 0 for no effect and ±100 for the full control effect; potency is read from the fitted curve at half-maximal effect.

SMILES | Potency | activity change, negative = inhibition
NS(=O)(=O)c1ccc(NC(=O)CSc2ccc3ccccc3n2)cc1 | inconclusive: 25.9 µM [falling, partial curve, poor fit] | 
C=CCc1c(Cl)nc(C)nc1NCc1ccccc1 | inconclusive: 13 µM [falling, partial curve] | 
COC1C(CO)OC(n2c3c(Cl)cccc3c3c4c(c5c6cccc(Cl)c6[nH]c5c32)C(=O)NC4=O)C(O)C1O (stereo not given) | inconclusive: 0.92 µM [falling, full curve] | 
CC1CCC(C(=O)NC(C(=O)OCC(=O)c2ccc(Br)cc2)C(C)C)CC1 (stereo not given) | inconclusive: 20.6 µM [falling, single point] | 
Cc1ccc(SCC(=O)NCCN2C(=O)CSC2=O)cc1C | inconclusive: 29.1 µM [activator, single point] | 
O=C(Nc1ccc(F)c([N+](=O)[O-])c1)C1CC(=O)N(Cc2ccccc2)C1 (stereo not given) | inconclusive: 29.1 µM [activator, single point] | 
CC(C)Cn1c(N)c(C(=O)COC(=O)c2cc3ccccc3cc2O)c(=O)n(C)c1=O | inconclusive: 18.4 µM [falling, single point] | 
CCNC(=S)NN=C1CCC(C(C)(C)C)CC1 (stereo not given) | inconclusive: 32.6 µM [activator, single point] | 
COc1ccc(Cn2c(N)c(C#N)c3nc4ccccc4nc32)cc1OC | inactive | 
COc1ccc(O)c(C(=O)c2cc(C(=O)NCCc3ccccc3)c(=O)n(CCc3ccccc3)c2)c1 | inconclusive: 32.6 µM [falling, single point] | 
CNS(=O)(=O)c1cn(CC(=O)Nc2ccc(OC)cc2OC)cc1S(=O)(=O)NC | inconclusive: 9.2 µM [activator, partial curve, poor fit] | 
CCn1c(C)c(C(C)=O)c(N2CCN(c3cccc(Cl)c3)CC2)nc1=S | inconclusive: 29.1 µM [falling, single point] | 
Cc1ccc(C)c(S(=O)(=O)Nc2ccc(C(=O)N3CCC3)cc2)c1 | inconclusive: 8.2 µM [falling, partial curve, poor fit] | 
O=C(Nc1cc(-c2ccccc2)[nH]n1)c1ccccc1F | inconclusive: 29.1 µM [activator, single point] | 
O=C(CNC(=O)c1ccc(S(=O)(=O)N2CCCC2)cc1)N/N=C/c1ccc(Cl)cc1Cl | inconclusive: 13 µM [falling, partial curve, poor fit] | 
Brc1cccc(-c2nnc(-c3ccccc3)o2)c1 | inconclusive: 9.2 µM [activator, partial curve] | 
CN(C)c1nnnn1-c1cccc(Oc2ncc(C(F)(F)F)cc2Cl)c1 | inconclusive: 25.9 µM [falling, single point] | 
C/C(=N\NC(=O)COc1ccccc1[N+](=O)[O-])c1cccs1 | inconclusive: 11.6 µM [activator, partial curve] | 
CCC(CC)C(=O)Nc1cccc(C(=O)Nc2nccs2)c1 | inconclusive: 0.58 µM [falling, single point] | 
CCN(C(=O)COC(=O)/C=C/c1ccc(OC(F)F)c(OC)c1)C1CCS(=O)(=O)C1 (stereo not given) | inconclusive: 5.17 µM [falling, single point] | 

SMILES | Potency | activity change, negative = inhibition
COc1ccc(-c2csc(NC(=O)CS(=O)(=O)c3ccc(F)cc3)n2)cc1OC | inconclusive: 32.6 µM [falling, partial curve, poor fit] | 
CCCCCn1c(CCNC(=O)c2cccc(C)c2)nc2ccccc21 |  | inactive: -9.06% [at 9.27 µM]
O=C(c1cccc(Br)c1)N1CCCc2ccccc21 | inactive | 
CCCCC[C@@H]1C=C(C(=O)O)[C@H](c2ccc(C#N)cc2)N1S(=O)(=O)c1ccc(C)cc1 | inactive | 
CC(=Nc1cccc(C)c1)c1sc2ccccc2c1O | inconclusive: 9.2 µM [activator, partial curve] | 
CSc1nc2ccc(NC(=O)c3ccc(Cl)s3)cc2s1 | inconclusive: 6.51 µM [activator, partial curve, poor fit] | 
Cc1ccc(S(=O)(=O)Cn2nnnc2C(C(C)C)N2CCc3ccccc3C2)cc1 (stereo not given) | inconclusive: 32.6 µM [falling, single point] | 
COc1ccc(C2=NN(C(=O)CSc3nnc(C)n3C)C(c3ccco3)C2)cc1 (stereo not given) | inactive | 
Nc1nonc1-n1nnc(C(=O)N/N=C/c2ccccn2)c1CNc1ccccc1 | inconclusive: 32.6 µM [falling, partial curve, poor fit] | 
CCOC(=O)Cc1c(C)nc2cc(-c3ccc(Cl)cc3)[nH]n2c1=O | inconclusive: 29.1 µM [activator, single point] | 
Cc1c(NC(=O)CSc2ncnc3c2cnn3-c2ccccc2)c(=O)n(-c2ccccc2)n1C | inactive | 
O=C1C=C(c2cccc(Cl)c2O)C[C@@H](c2ccc(Cl)cc2)C1 | inactive | 
CCOc1ccc(S(=O)(=O)N2CCN(c3ccc(OC)cc3)CC2)c2cccnc12 | inconclusive: 0.0041 µM [falling, full curve, poor fit] | 
CC(=O)Oc1ccc(-c2cc3c(OC(C)=O)cc(OC(C)=O)cc3oc2=O)cc1 | inactive | 
Cc1ccc(S(=O)(=O)N2[C@@H](c3cccc(Cl)c3)C(C(=O)O)=CC[C@H]2c2ccc(C(C)C)cc2)cc1 | inconclusive: 16.4 µM [falling, partial curve, poor fit] | 
O=C(c1ccncc1)N1CCN(S(=O)(=O)c2cccc([N+](=O)[O-])c2)CC1 | inconclusive: 3.26 µM [falling, full curve, poor fit] | 
CC(NC(=O)C12CC3CC(CC(C3)C1)C2)C(=O)NCCN(C)C (stereo not given) | inconclusive: 0.0052 µM [activator, full curve, poor fit] | 
Cc1cccc(C(C)C)c1NC(=O)C(NS(=O)(=O)c1cccc2nsnc12)c1ccccc1 (stereo not given) | inactive | 
c1ccc(C2=Nn3c(nnc3-c3ccncc3)SC2)cc1 | inconclusive: 29.1 µM [falling, partial curve, poor fit] | 
Cc1ccccc1NC(=O)c1cc(=O)c2ccccc2o1 | inconclusive: 6.51 µM [falling, partial curve] | 

A portion of the results above, for reference:
SMILES | Potency | activity change, negative = inhibition
Nc1nonc1-n1nnc(C(=O)N/N=C/c2ccccn2)c1CNc1ccccc1 | inconclusive: 32.6 µM [falling, partial curve, poor fit] | 
CCOC(=O)Cc1c(C)nc2cc(-c3ccc(Cl)cc3)[nH]n2c1=O | inconclusive: 29.1 µM [activator, single point] | 
Cc1c(NC(=O)CSc2ncnc3c2cnn3-c2ccccc2)c(=O)n(-c2ccccc2)n1C | inactive | 
O=C1C=C(c2cccc(Cl)c2O)C[C@@H](c2ccc(Cl)cc2)C1 | inactive | 
CCOc1ccc(S(=O)(=O)N2CCN(c3ccc(OC)cc3)CC2)c2cccnc12 | inconclusive: 0.0041 µM [falling, full curve, poor fit] | 
CC(=O)Oc1ccc(-c2cc3c(OC(C)=O)cc(OC(C)=O)cc3oc2=O)cc1 | inactive | 
Cc1ccc(S(=O)(=O)N2[C@@H](c3cccc(Cl)c3)C(C(=O)O)=CC[C@H]2c2ccc(C(C)C)cc2)cc1 | inconclusive: 16.4 µM [falling, partial curve, poor fit] | 
O=C(c1ccncc1)N1CCN(S(=O)(=O)c2cccc([N+](=O)[O-])c2)CC1 | inconclusive: 3.26 µM [falling, full curve, poor fit] | 
CC(NC(=O)C12CC3CC(CC(C3)C1)C2)C(=O)NCCN(C)C (stereo not given) | inconclusive: 0.0052 µM [activator, full curve, poor fit] | 
